# According to PubChem BioAssay AID1671190 (National Center for Advancing Translational Sciences (NCATS), 2021):
# Chains of the proteins cited; added tags and fusions are not shown. Lines headed by an entry give the natural chain unless they say otherwise; changes in a name come on top.
# UniProt P18054: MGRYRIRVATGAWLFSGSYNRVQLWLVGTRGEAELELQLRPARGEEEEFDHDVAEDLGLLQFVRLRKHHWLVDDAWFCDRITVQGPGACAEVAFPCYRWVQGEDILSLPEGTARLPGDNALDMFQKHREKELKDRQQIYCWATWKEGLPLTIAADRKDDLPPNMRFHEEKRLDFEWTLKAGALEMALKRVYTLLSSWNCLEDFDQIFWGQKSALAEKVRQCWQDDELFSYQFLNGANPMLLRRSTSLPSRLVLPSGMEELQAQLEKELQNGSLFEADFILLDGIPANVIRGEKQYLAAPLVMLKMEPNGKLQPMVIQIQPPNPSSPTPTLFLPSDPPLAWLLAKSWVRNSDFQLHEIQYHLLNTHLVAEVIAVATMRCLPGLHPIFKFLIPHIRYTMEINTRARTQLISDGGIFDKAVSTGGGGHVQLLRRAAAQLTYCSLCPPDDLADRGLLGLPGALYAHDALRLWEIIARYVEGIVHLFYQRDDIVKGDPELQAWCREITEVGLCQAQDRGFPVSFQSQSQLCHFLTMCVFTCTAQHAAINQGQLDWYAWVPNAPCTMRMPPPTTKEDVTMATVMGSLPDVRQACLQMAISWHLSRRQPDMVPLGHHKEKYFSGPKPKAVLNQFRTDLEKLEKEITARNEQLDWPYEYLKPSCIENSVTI
# Hit rate of the full screen: of about 580,000 compounds, about 6,100 (1.1%) were called active. The inconclusive results got no clear call from the source; some entries with a clear call stand among them for comparison. Calls come from the whole dose curve; as a rule, active = well fitted inhibition curve with a large enough effect; inconclusive = small, poorly fitted or top-dose-only effect, or another doubt; inactive = no such curve, though single readings can be large or run the other way. Where the call is inconclusive, the potency comes from a doubtful curve fit.
# Target: Polyunsaturated fatty acid lipoxygenase ALOX12 (Homo sapiens) (UniProt P18054)
# Experiment: Primary qHTS assay for inhibitors of human arachidonate 12S-lipoxygenase (ALOX12): Round 2
# Settings: purified 12hLO, xylenol orange hydroperoxide absorbance; activity change, negative = inhibition: at 108 µM (top of the series) unless noted
# In short: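 Hydroperoxide product was detected by ferrous iron/xylenol orange as the 573 to 405 nm absorbance ratio. Arachidonic acid at 40 uM (final) was turned over for 30 min at room temperature by 150 nM human 12hLO, pH 7.0 Hepes buffer, after 15 min compound preincubation.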
# % is set by controls: 0 for no effect and ±100 for the full control effect; potency is the fitted concentration of half-maximal effect.
SMILES,Potency,"activity change, negative = inhibition"
O=C(NC(=S)Nc1cccc(Cl)c1N1CCCCC1)c1cccs1,"inconclusive: 20 µM [inhibitor, full curve]",
CCCn1cc(CNC(=O)c2ccc(CC3CCCNC3)cc2)cn1 (stereo unspecified),"inconclusive: 6.31 µM [inhibitor, full curve]",
O=P(O)(c1ccc(Cl)cc1)c1ccc(Cl)cc1,"inconclusive: 39.8 µM [inhibitor, partial curve, poor fit]",
COc1ccc(C(C(=O)NC(C)(C)C)N(Cc2cccs2)C(=O)CCC(=O)Nc2cc(C)on2)cc1 (stereo unspecified),"inconclusive: 0.0891 µM [inhibitor, full curve, poor fit]",
CCOc1ccc(C(=O)OCc2ccccc2C#N)cc1OC,"inconclusive: 31.6 µM [inhibitor, partial curve, poor fit]",
O=S(=O)(Nc1nc2ccccc2nc1Nc1ccccc1)c1ccc(Cl)s1,"inconclusive: 39.8 µM [inhibitor, partial curve, poor fit]",
CCCCC1Cc2[nH]c(=S)[nH]c(=O)c2C(c2ccc(Cl)cc2)O1 (stereo unspecified),"inconclusive: 70.8 µM [inhibitor, partial curve, poor fit]",
N#CC1(c2nc3ccccc3[nH]2)CC1c1ccc2c(c1)OCO2 (stereo unspecified),"inconclusive: 17.8 µM [inhibitor, partial curve, poor fit]",
O=C(O)/C(=C\c1cccc([N+](=O)[O-])c1)c1ccc(S(=O)(=O)N2CCCCC2)s1,"inconclusive: 44.7 µM [inhibitor, partial curve, poor fit]",
CCn1ncc(N2CCC(NC(=O)C(C)(C)CC)CC2)cc1=O,"inconclusive: 35.5 µM [inhibitor, partial curve, poor fit]",
O=C(CSC(=S)N1CCCC1)c1ccccc1,"inconclusive: 70.8 µM [inhibitor, partial curve, poor fit]",
COc1cc2c(cc1OC)C1=CC3(C(=O)Nc4cc5c(cc43)OCCO5)C(C#N)=C(N)N1CC2 (stereo unspecified),"inconclusive: 44.7 µM [inhibitor, partial curve, poor fit]",
O=C1CN(C(=O)COC(=O)CC23CC4CC(CC(C4)C2)C3)c2ccccc2N1,,inactive: -21.9%
COc1ccccc1NC(c1cccnc1)c1ccc2cccnc2c1O (stereo unspecified),"inconclusive: 14.1 µM [inhibitor, full curve]",
Cc1nc2c3ccccc3n(Cc3ccccc3F)c2s1,,inactive: -2.5%
Nc1cc(S(=O)(=O)N2CCOCC2)ccc1N1CCCCC1,"inconclusive: 44.7 µM [inhibitor, partial curve]",
O=C(COC(=O)CCCN1C(=O)c2cccc3cccc(c23)C1=O)NC1CCS(=O)(=O)C1 (stereo unspecified),"inconclusive: 112 µM [inhibitor, single point]",
O=C(Cc1ccc(Cl)cc1)NC(=S)Nc1ccccc1N1CCOCC1,"inconclusive: 44.7 µM [inhibitor, partial curve]",
CCCN(C)C1CN(Cc2cn(Cc3ccccc3)nn2)S(=O)(=O)C1 (stereo unspecified),"inconclusive: 35.5 µM [inhibitor, single point]",
COC(=O)c1[nH]c2ccccc2c1CN1CCOCC1,"inconclusive: 141 µM [inhibitor, partial curve, poor fit]",
O=C1CCC(C2CCc3cc(O)ccc3C2)C1 (stereo unspecified),,inactive: -14.3%

SMILES,Potency,"activity change, negative = inhibition"
CC[N+](C)(CC)CCCOC(=O)C1(c2ccccc2)CCCC1,active: 20 µM,
CCOC(=O)C(C(=O)OCC)c1cc(Br)c2noc3c2c1C(=O)c1ccccc1-3,"inconclusive: 3.98 µM [inhibitor, full curve, poor fit]",
Cc1ccc(/C=C/C(=O)O)c(Br)c1,"inconclusive: 126 µM [inhibitor, partial curve, poor fit]",
COc1cc(NC(=O)c2ccc(Br)cc2)c(OC)cc1NC(=O)c1ccccc1,"inconclusive: 1.12 µM [inhibitor, full curve, poor fit]",
COc1ccc(-c2nc3c(s2)CN(C(C(=O)O)c2c[nH]c4cc(F)ccc24)CC3)cc1 (stereo unspecified),"inconclusive: 44.7 µM [inhibitor, partial curve, poor fit]",
N#C/C(=C/c1cccc(Oc2ccc(Cl)cc2)c1)c1nc2ccccc2[nH]1,,inactive: -29.2%
CCOC(=O)c1cnc2c(F)ccc(F)c2c1Sc1ccccc1,"inconclusive: 50.1 µM [inhibitor, partial curve, poor fit]",
CC(C)NC(=O)N(C1CC1)C1CCOC2(CCN(C(=O)C3CCCC3)CC2)C1 (stereo unspecified),,inactive: 2.69%
Cc1ccc(C(=O)NCCn2cccc2-c2nc(-c3ccc4c(c3)OCO4)no2)cc1C,"inconclusive: 20 µM [inhibitor, full curve]",
C=CCSc1nnc(N2C(=O)C(O)=C(C(=O)c3ccco3)C2c2ccc(F)cc2)s1 (stereo unspecified),"inconclusive: 79.4 µM [inhibitor, partial curve, poor fit]",
COc1cc(OC)c(C(=O)OCC(=O)Nc2c(C(C)C)cccc2C(C)C)cc1OC,"inconclusive: 89.1 µM [inhibitor, single point]",
CCCCc1c(-c2ccccc2OC)ncn1Cc1cccc(F)c1F,"inconclusive: 50.1 µM [inhibitor, partial curve, poor fit]",
O=C(c1ccc(Br)cc1)C1CCc2occc2C1=O (stereo unspecified),"inconclusive: 56.2 µM [inhibitor, partial curve, poor fit]",
CCN(CC)S(=O)(=O)c1ccc(-c2nc(C#N)c(NCc3ccccc3)o2)cc1,,inactive: -3.83%
O=C(c1n[nH]c2ccccc12)N1CCC2(CC1)CC(N1CCOCC1)CCO2 (stereo unspecified),,inactive: 14.6%
[O-]/C(=C(\C(=S)Nc1cccc2ccccc12)[n+]1ccccc1)c1ccc(Cl)s1,"inconclusive: 44.7 µM [inhibitor, partial curve, poor fit]",
O=C(CCn1c(=O)[nH]c2ccccc2c1=O)N1CCN(c2cccc(C(F)(F)F)c2)CC1,,inactive: -18.8%
COc1cc(OC)cc(C(=O)NC2CC3CCC2C3)c1 (stereo unspecified),,inactive: -3.26%
COc1ccc(-c2csc(NC(=O)c3ccc(S(=O)(=O)N4CCc5ccccc5C4)cc3)n2)c(OC)c1,,inactive: -15.1%
CCOC(=O)c1sc2nc(CN(C)Cc3ccccc3)[nH]c(=O)c2c1C,"inconclusive: 50.1 µM [inhibitor, partial curve, poor fit]",

# Of the compounds above, four have bromine:
SMILES,Potency,"activity change, negative = inhibition"
CCOC(=O)C(C(=O)OCC)c1cc(Br)c2noc3c2c1C(=O)c1ccccc1-3,"inconclusive: 3.98 µM [inhibitor, full curve, poor fit]",
Cc1ccc(/C=C/C(=O)O)c(Br)c1,"inconclusive: 126 µM [inhibitor, partial curve, poor fit]",
COc1cc(NC(=O)c2ccc(Br)cc2)c(OC)cc1NC(=O)c1ccccc1,"inconclusive: 1.12 µM [inhibitor, full curve, poor fit]",
O=C(c1ccc(Br)cc1)C1CCc2occc2C1=O (stereo unspecified),"inconclusive: 56.2 µM [inhibitor, partial curve, poor fit]",
